The RNAGym collection of RNA variant scans (doi:10.1126/science.aae0568)
This sample is rich in variants without activity.

B1: tRNA (parent)
chain: GUUCCGUUGGCGUAAUGGUAACGCGUCUCCCUCCUAAGGAGAAGACUGCGGGUUCGAGUCCCGUACGGAACG

Variants of: B1
Experiment: yeast fitness relative to wild type (ratio to wild type); higher = fitter; tRNA-Arg(CCU), competitive growth, 37 C, YPD
Outline: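 Variants of the tRNA-Arg(CCU) gene were chemically synthesised with a 3% per-site mutation rate across 69 sites and placed at the native genomic locus in Saccharomyces cerevisiae. Six parallel replicates of the pooled strains were competed in YPD at 37°C for 24 hours, and gene amplicons from the start and end populations were read by 100-nucleotide paired-end sequencing. Darwinian fitness relative to wild type was derived from changes in genotype frequencies. Genotypes required ≥ 100 starting reads, and estimates < 0.5 were set to 0.5.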

| Variant | yeast fitness |
| --- | --- |
| GUUCCGUUGACGUAAUGGUAACGCGUCUGCCUCCUAAGGAGAAGACUGCGGGUUCGAGUCCCGUACUGAACG | ≤ 0.5 |
| GUUCCGUUGACGUAAUGGUAACGCGUCUCUCUCUUAAGGAGGAGACUGCGGGUUCGUGUCCCGUACGGAACG | ≤ 0.5 |
| GUUCCGUUGACGUAAUGGUAACGCGUCUCCAUCCUAAGGAGAAGACUGCGGGUUUGAGUCCCAUACGGAACG | ≤ 0.5 |
| GUUCCGUUGACGUAAUGGUAACGCGUCUCCCUUCUAAGGAGAAGACUGCGGGUUCGAGUCCCGUACGGAACG | 0.592 |
| GUUCCGUUGACGUAAUGGUAACGCGUCUCCCUCGUGAGGAGAAGACUGCGGGUUCGAGUGCCGUACGGAACG | ≤ 0.5 |
| GUUCCGUUGACGUAAUGGUAACGCGUCUCCCUCCUAAGGAGAAGACUGUGGGUCCGAGUCCCGUAAGGCACG | ≤ 0.5 |
| GUUCCGUUGACGUAAUGGUAACGCGUCUCCCUCCUAAGGAGAAGACUGCGGGUUGCAGUCCCGUACGGAACG | ≤ 0.5 |
| GUUCCGUUGACGUAAUGGUAACGCGUCUCCCUCCUAAGGAGAAGACUGCGGGUUCGAGUUCCGUACAGAACG | ≤ 0.5 |
| GUUCCGUUGACCUAAUGGUAACGCGUCUCCCUCCUAAGGAGAAGAAUGCGGGUUCGAGUCCCGUACGGAACG | ≤ 0.5 |
| GUUCCGUUGACGUAAUAGUAACGCGUCUCCCUCCUAAGGAGAAGUCAGCGGGUUCGAGUCCCGUACGGAACG | ≤ 0.5 |
| GUUCCGUUGACGUAAUAGUAACGCGUCUACCUCGUAAGGAGACGACUGCGGGUUCGAGUGCCGUACGGAACG | ≤ 0.5 |
| GUUCCGUUGACGUAAUGGUAACCCGUCUUCCUCCUCAGGAGAAGACUGCGGGUUCGAGUCCCGUACGGAACG | 0.532 |
| GUUCCGUUGACGUAAUGGUAACCCGUCUUCCUCCUUAGGAGAAGACUGCGGGUUCGAGUCCCGUACGGAACG | ≤ 0.5 |
| GUUCCGUUGACGUAAUGGUAACGCGUCUCCCUCCUAAGAAGAAGACUGCGGGUUCGAGUCCCGUACGGAACG | 0.784 |
| GUUCCGUUGACGUAAUGGUAACGCGUCUCCCUCCUAAGAAGAAGACUGCGGGUUCGAGUCCCGUCGGGAACG | 0.556 |
| GUUCCGUUGACGUAAUGGUAACGCGUCUCCCUCCUAAGCAGAAGACUGCGGGUUCGCGUCCCGUACGGAUCG | ≤ 0.5 |
| GUUCCGUUGACGAAAUGGUAACGCGUCUUCCUCCUAAGGAGAAGACUGGGGGUUCGAGUCCCGUACGGAACG | ≤ 0.5 |
| GUUCCGUUGACGCAAUGGUAACGCGUCUCCCUCCUAAGGAGAAGACUGCGGGUUGGAGCUCCGUACUGAACG | ≤ 0.5 |
| GUUCCGUUGACGUAAGGGUAACGCGUCUCCCUCCUAAGGAGAAGACUGCGGGUUCGAGUCCCGUACGGUACG | ≤ 0.5 |
| GUUCCGUUGACGUAAUGGAAACGCGUCUCCCUCCUAAGGAGAAGGCUGCGGGUUCGAGUCGCGUACGGAACG | ≤ 0.5 |
| GUUCCGUUGACGUAAUGGCAACGCGUCUCCCUCCUAAGGAGAAGACUAGGGGUUCGAGUCCCGUACGGAACG | 0.56 |
| GUUCCGUUGACGUAAUGGUAACGCGUCACCCUCCUAAGGAGUAGACUGCGGGUUCGAGUCCCGUACGGAACG | ≤ 0.5 |
| GUUCCGUUGACGUAAUGGUAACGCGUCUCCCUCCGAUGGAGAAGACUGCGGGUUCGAGUCCCGUACGGAACG | 0.551 |
| GUUCCGUUGACGUAAUGGUAACGCGUCUCCCUCCUAAGGAGAAGACUGCGGGUUCGAGCCCCGUACGGAACG | 0.721 |
| GUUCCGUUGCCGUCGUGGUAACGCGUCUCCCUCCUAAGGAGAAGACUGCGGGUUCGAGUCCCGUACGGAACG | ≤ 0.5 |

| Variant | yeast fitness |
| --- | --- |
| GUUCCGUUGCCGUCAUGGUAUCGCGUCUCCUUCCUAAGGAGAAGACUGCGGGUUCGAGUCCCGUACGGAACG | 0.773 |
| GUUCCGUUGCCGUGAUGGUAACGCGUCUCCCUCGUAAGGAGAAGACUGCGGGUUCGAGUCCCGUACAGAACG | ≤ 0.5 |
| GUUCCGUUGCCGUUAUGGUAACGCGUCUCCCUCAUAAGGAGAAGACUGCGGGUUCGAGUCCUGUACGGAACG | ≤ 0.5 |
| GUUCCGUUGCCGUUAUGGUAACGCGUCUCCCUCCUAAAGAGAUGACUGCGGGUUCAAGUCCCGUACGGAACG | ≤ 0.5 |
| GUUCCGUUGCCGUUAUGGAAAUGCGUCUCCCUCCUGAGGAGAAGACUGCGGGUUCGAGUCCCGUACGGAACG | ≤ 0.5 |
| GUUCCGUUGCCGUACUGGUAACGCGUGUCACUCCUAAGGAGAAGACUGCGGGUUCGAGCCCCGUACGGAACG | ≤ 0.5 |
| GUUCCGUUGCCGUACUGGUAACGCGUCUCCAUCCUAAGGAGAAGAAUGCGGGUUCGAGUCCCGUACGGAACG | ≤ 0.5 |
| GUUCCGUUGCCGUAGUGAUAACGCGUCUCCCUCCAAAGGAGAAAACUGCGGGUUCGAGUCCCGUACGGAACG | ≤ 0.5 |
| GUUCCGUUGCCGUAUUGGUAACGUGUCUCCCUCCUAAGGAGAAGACUGCGGGUUCGAGUCCCGUACGGAACG | ≤ 0.5 |
| GUUCCGUUGCCGUAAUGGUGACGCGUCUCCCUCCUAAGGAGAAGACUGCGGGUUCGAGUCCCGUACGGAACG | 0.775 |
| GUUCCGUUGCCGUAAUGGUGACGCGUCUCCCUCCUAAGGAGAUGACUACGAGUUCGAGUCCCGUACGGAACG | ≤ 0.5 |
| GUUCCGUUGCCGUAAUGGUACCGCGUCUCCCUCCUAAGGAGAAGACUGCGGGUUCGAGUCCCGUAGGGAACG | ≤ 0.5 |
| GUUCCGUUGCCGUAAUGGUAACGCGUCUCCCUCCUUAGGCGAAGACUGCGGGUUCGAGUGCCGUACGGAACG | ≤ 0.5 |
| GUUCCGUUGCCGUAAUGGUAACGCGUCUCCCUCCUAAGGGGAAGACUGCGGGUUCGAGUCCCGUCCGGAACG | ≤ 0.5 |
| GUUCCGUUGCCGUAAUGGUAACGCGUCUCCCUCCUAAGGUGGAGGCUGCGCGUUCGAGUCUCGUACGGAACG | ≤ 0.5 |
| GUUCCGUUGCCGUAAUGGUAACGCGUCUCCCUCCUAAGGAGUUGACUGCGGGUUCGAGUCCAGUUCGGGACG | ≤ 0.5 |
| GUUCCGUUGCCGUAAUGGUAACGCGUCUCCCUCCUAAGGAGUAGACUGCGGGUUCGAGUCUUGUACGGAACG | ≤ 0.5 |
| GUUCCGUUGCCGUAAUGGUAACGCGUCUCCCUCCUAAGGAGAUGACUGCGGGUUCGAGUCCCCUAAGGAACG | ≤ 0.5 |
| GUUCCGUUGCCGUAAUGGUAACGCGUCUCCCUCCUAAGGAGAAGCAUGCGGGUUCGAGUCCCGUAUGGAACG | 0.643 |
| GUUCCGUUGCCGUAAUGGUAACGCGUCUCCCUCCUAAGGAGAAGACUGCGGGUUCGGGUCCCGUGCGGAGCG | ≤ 0.5 |
| GUUCCGUUGCAGUAAUGGUAACGCGUCUCCCUCCUAAGGAGAAGACUGGGGGUUAGAGUCCCGUACGGAACG | ≤ 0.5 |
| GUUCCGUUGCGGUAAUGGUAACGCGUCUCCCUCCUAAGGAGAAGACUGCGGGUUCCAGUCCCGUACGAAACG | ≤ 0.5 |
| GUUCCGUUGCUGUAAUGGUCACGCGUCUCCCUCCUAAGGAGAAGACUGCGGGUUCGUGUCCCGUACGGAACG | ≤ 0.5 |
| GUUCCGUUGCUGUAAUGGUCACGCGUCUCCUUCCUAAGGAGAAGACUGCGGGUUCGUGUCCCGUACGGAACG | ≤ 0.5 |
| GUUCCGUUGCUGUAAUGGUAACGUGUCUCCCUGCUAAGGAGAAGACUGCGGGUUCGAGUCCCGUACGGUACG | ≤ 0.5 |

| Variant | yeast fitness |
| --- | --- |
| GUUCCGUUGCUGCAAUGCUAACGCGUUUCCCUGCUAAGGAGAAGACUGCGGGUUUGAGUCCCGAACGCAUCG | ≤ 0.5 |
| GUUCCGUUGCCGUAAUGGUAAAGGGUCUCCCUCCUAAGGAGAAGACUGCGGGUUCGAGUCCCGUCUGGAACG | ≤ 0.5 |
| GUUCCGUUGCCGUAAUGGUAAAGGGUCUCCCUCCUAAGGAGAAGACUGCGGAUUCGAGUCCCGUACGGAACG | ≤ 0.5 |
| GUUCCGUUGCCGUAAUGGUAAUGCGUCUCCCUCCUAAGGAGAACUCUGCGGGUUCGAGUCCCGUACGGAACG | ≤ 0.5 |
| GUUCCGUUGCCGUAAUGGUAACGAGUCUCCCUCCUAAGGAGAAGACUGCGGGUUCGAGUCCCGUACGGAACG | ≤ 0.5 |
| GUUCCGUUGCCGUAAUGGUAACGCGUGUCCCUCCUAAGGAGAAGAGUGCGGGUUCGAGUCCCGUGCGGAACG | ≤ 0.5 |
| GUUCCGUUGCCGUAAUGGUAACGCGUCUUCCUCUUAAAGAGAACACUGCGGGUUCGAGUCCCGUACGGAACG | ≤ 0.5 |
| GUUCCGUUGCCGUAAUGGUAACGCGUCUCUCUCCUAAGGAGACGACUGCGGGUUCGAGUCCCGUACGGAACG | ≤ 0.5 |
| GUUCCGUUGCCGUAAUGGUAACGCGUCUCCAUCCUAAGGAGAAGACUGCGGGUUCAAGUCCCGUGAGCAACG | ≤ 0.5 |
| GUUCCGUUGCCGUAAUGGUAACGCGUCUCCGUCCUAAGGAGAAGACUGCGGGUUCGAGUCCCGUACGGAACG | 0.631 |
| GUUCCGUUGCCGUAAUGGUAACGCGUCUCCCUACUAAGGAGAAGACUGCGGGUUCGAGUCCGGUACGGAACG | ≤ 0.5 |
| GUUCCGUUGCCGUAAUGGUAACGCGUCUCCCUUCUAAGGAGAAGACUGCGGGUUCGAGUCCCGUACGGAACG | ≤ 0.5 |
| GUUCCGUUGCCGUAAUGGUAACGCGUCUCCCUCGUAAGGGGAAGAGUGAGGGUUCGAGCCCCGUACGGAACG | ≤ 0.5 |
| GUUCCGUUGCCGUAAUGGUAACGCGUCUCCCUCCUAAGGAGAAGACUGCGGGUUUGAGUCCCGUUCGGAACG | ≤ 0.5 |
| GUUCCGUUGCCGUAAUGGUAACGCGUCUCCCUCCUAAGGAGAAGACUGCGGGUUCGAGUCCCGUAGGGAACG | 0.515 |
| GUUCCGUUGCCAUAAUGGUAACGCGUCUCCCUACUAAGGAGAAGACAGCGGGUUAGAGUCUCGUACGGAACG | ≤ 0.5 |
| GUUCCGUUGCCAUAAUGGUAACGCGUCUCCCUCCUAAGGAGAAGACUGCGGGUUCGAGUCGCGUAUGGAACG | ≤ 0.5 |
| GUUCCGUUGCCCUAAUGGUAACGCGUCUCCCUCCUAAGAAGAAGACUGCGGGUUCGAGUCCCGUACGGUACG | ≤ 0.5 |
| GUUCCGUUGCCGUAAUGGUAACGCCCCUCCCUCCUAAGGAGAAGACUGCGGGUUCGAGUCCCGUACGGACCG | ≤ 0.5 |
| GUUCCGUUGCCGUAAUGGUAACGCGUCUCCCUCCUAAGAAGAAGACUGCGGGUUCGAGUCCCGUACGGUACG | ≤ 0.5 |
| GUUCCGUUGCCGUAAUGGUAACGCGUCUCCCUCCUAAGAAGAAGACUGCGGGUUCGAGACCCAUACGGAACG | ≤ 0.5 |
| GUUCCGUUGCCGUAAUGGUAACGCGUCUCCCUCCUAAGGAAAAGACUGCGGGUUCGAGUCCUGUACGGAACG | ≤ 0.5 |
| GUUCCGUUGCCGUAAUGGUAACGCGCCUCCCUCCUAAGGAGAAGAUUGCGGGUUCGAGUCCCGUACGGAACG | ≤ 0.5 |
| GUUCCGUUGCCGUAAUGGUAACGCGUCUCCCUCCGAAGGAGACGACCGCGGGUUUGAGUCCUGUACGGCACG | ≤ 0.5 |
| GUUCCGUUGCCGUAAUGGUAACGCGUCUCCCUCCUAAGGAGAAGACAGCGGGUUCGAGUCCCGUACGGACCG | ≤ 0.5 |
